Data: patent US20030162714A1 (Pfizer, published 2003)
Results are given in words; binding and its absence hold for the method and conditions named. Binding seen in cells or lysates may run through a third protein. Some entries that bind do so weakly or less than the wild type. For some of these results: Where a sequence is shown, tags or fusion partners need not be part of it.

What was measured:
[1] = molecular target: T1, mature GDF-8 isolated from human serum (human) (UniProt O14793); assay: co-purification with mature GDF-8 on JA16 beads from human serum, nanoflow LC-MS/MS
T1 sequence (looked up): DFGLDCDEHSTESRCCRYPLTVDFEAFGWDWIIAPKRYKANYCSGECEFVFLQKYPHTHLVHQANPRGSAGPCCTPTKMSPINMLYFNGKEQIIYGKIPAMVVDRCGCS

[2] = molecular target: T1, mature GDF-8 isolated from human serum (human); assay: co-purification with GDF-8 on JA16 beads from human serum, LC-MS/MS
[3] = molecular target: T2, recombinant purified GDF-8 (UniProt O14793 267-375, limits assumed); assay: co-immunoprecipitation with GDF-8 on JA16 beads, western blot
T2 sequence (looked up): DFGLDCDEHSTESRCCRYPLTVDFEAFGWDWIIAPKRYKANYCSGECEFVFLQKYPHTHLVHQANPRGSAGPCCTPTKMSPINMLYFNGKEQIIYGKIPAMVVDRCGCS

[4] = molecular target: T3, mature GDF-8 isolated from normal mouse serum (mouse) (UniProt O08689); assay: large scale JA16-bead purification from mouse serum, nanoflow-LC-MS/MS
T3 sequence (looked up): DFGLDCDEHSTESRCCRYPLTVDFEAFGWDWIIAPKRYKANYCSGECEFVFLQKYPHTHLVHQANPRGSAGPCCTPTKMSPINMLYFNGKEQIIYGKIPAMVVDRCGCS

[5] = molecular target: T3, mature GDF-8 isolated from normal mouse serum (mouse); assay: co-purification with GDF-8 on JA16 beads from mouse serum, MS/MS and western blot
[6] = molecular target: T3, mature GDF-8 isolated from normal mouse serum (mouse); assay: co-purification with GDF-8 on JA16 beads from mouse serum, LC-MS/MS against Celera database
[7] = molecular target: T3, mature GDF-8 isolated from normal mouse serum (mouse); assay: co-purification with GDF-8 on JA16 beads from serum, LC-MS/MS
[8] = molecular target: T3, mature GDF-8 isolated from normal mouse serum (mouse); assay: co-purification with GDF-8 on JA16 beads from mouse serum, MS/MS
[9] = molecular target: T4, recombinant purified GDF-8 propeptide (UniProt O14793); assay: co-immunoprecipitation (anti-V5 beads), western blot
T4 sequence (looked up): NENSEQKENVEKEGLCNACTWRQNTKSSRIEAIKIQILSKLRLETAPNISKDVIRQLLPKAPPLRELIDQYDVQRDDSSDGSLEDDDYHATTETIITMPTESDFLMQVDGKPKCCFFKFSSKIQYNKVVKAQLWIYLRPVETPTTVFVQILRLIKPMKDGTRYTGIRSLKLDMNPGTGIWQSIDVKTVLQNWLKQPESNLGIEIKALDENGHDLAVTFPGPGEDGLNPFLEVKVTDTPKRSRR

[10] = molecular target: T2, recombinant purified GDF-8; assay: co-immunoprecipitation (JA16 or anti-V5 beads), western blot
[11] = molecular target: T2, recombinant purified GDF-8; assay: co-immunoprecipitation with recombinant proteins
[12] = molecular target: T2, recombinant purified GDF-8; assay: co-immunoprecipitation with GASP1-V5-His on anti-V5 beads, western blot
[13] = molecular target: T4, recombinant purified GDF-8 propeptide; assay: as above

GDF-8 propeptide from human serum (from UniProt O14793 24-266)
binding [1]: binds
binding [2]: binds

recombinant purified GDF-8 propeptide (from UniProt O14793 24-266)
binding [3]: binds

B1: GDF-8 propeptide from normal mouse serum (protein, UniProt O08689 25-267, looked up)
chain: NEGSEREENVEKEGLCNACAWRQNTRYSRIEAIKIQILSKLRLETAPNISKDAIRQLLPRAPPLRELIDQYDVQRDDSSDGSLEDDDYHATTETIITMPTESDFLMQADGKPKCCFFKFSSKIQYNKVVKAQLWIYLRPVKTPTTVFVQILRLIKPMKDGTRYTGIRSLKLDMSPGTGIWQSIDVKTVLQNWLKQPESNLGIEIKALDENGHDLAVTFPGPGEDGLNPFLEVKVTDTPKRSRR
binding [4]: binds
binding [5]: binds

B2: follistatin-like related gene (FLRG) protein from normal mouse serum (protein, UniProt Q9EQC7 24-256, looked up)
chain: VMGSEDSVPGGVCWLQQGREATCSLVLKTRVSREECCASGNINTAWSNFTHPGNKISLLGFLGLVHCLPCKDSCDGVECGPGKACRMLGGRPHCECVPNCEGLPAGFQVCGSDGATYRDECELRTARCRGHPDLRVMYRGRCQKSCAQVVCPRPQSCLVDQTGSAHCVVCRAAPCPVPSNPGQELCGNNNVTYISSCHLRQATCFLGRSIGVRHPGICTGGPKVPAEEEENFV
binding [4]: binds
binding [5]: binds

B3: GDF-associated serum protein 1 (GASP1) from normal mouse serum (protein)
chain: LPPIRYSHAGICPNDMNPNLWVDAQSTCKRECETDQECETYEKCCPNVCGTKSCVAARYMDVKGKKGPVGMPKEATCDHFMCLQQGSECDIWDGQPVCKCKDRCEKEPSFTCASDGLTYYNRCFMDAEACSKGITLSVVTCRYHFTWPNTSPPPPETTVHPTTASPETLGLDMAAPALLNHPVHQSVTVGETVSFLCDVVGRPRPELTWEKQLEDRENVVMRPNHVRGNVVVTNIAQLVIYNVQPQDAGIYTCTARNVAGVLRADFPLSVVRGGQARATSESSLNGTAFPATECLKPPDSEDCGEEQTRWHFDAQANNCLTFTFGHCHHNLNHFETYEACMLACMSGPLATCSLPALQGPCKAYVPRWAYNSQTGLCQSFVYGGCEGNGNNFESREACEESCPFPRGNQHCRACKPRQKLVTSFCRSDFVILGRVSELTEEQDSGRALVTVDEVLKDEKMGLKFLGREPLEVTLLHVDWTCPCPNVTVGETPLIIMGEVDGGMAMLRPDSFVGASSTRRVRKLREVMYKKTCDVLKDFLGLQ
binding [4]: binds
binding [6]: binds
binding [7]: binds
binding [8]: binds

B4: human FLRG from human serum (protein, UniProt O95633 27-263, looked up)
chain: MGSGNPAPGGVCWLQQGQEATCSLVLQTDVTRAECCASGNIDTAWSNLTHPGNKINLLGFLGLVHCLPCKDSCDGVECGPGKACRMLGGRPRCECAPDCSGLPARLQVCGSDGATYRDECELRAARCRGHPDLSVMYRGRCRKSCEHVVCPRPQSCVVDQTGSAHCVVCRAAPCPVPSSPGQELCGNNNVTYISSCHMRQATCFLGRSIGVRHAGSCAGTPEEPPGGESAEEEENFV
binding [1]: binds
binding [2]: binds

B5: mouse GASP1 cloned with a C-terminal V5-His tag (GASP1-V5-His) (other, not shown: small tags and cut ends)
chain: LPPIRYSHAGICPNDMNPNLWVDAQSTCKRECETDQECETYEKCCPNVCGTKSCVAARYMDVKGKKGPVGMPKEATCDHFMCLQQGSECDIWDGQPVCKCKDRCEKEPSFTCASDGLTYYNRCFMDAEACSKGITLSVVTCRYHFTWPNTSPPPPETTVHPTTASPETLGLDMAAPALLNHPVHQSVTVGETVSFLCDVVGRPRPELTWEKQLEDRENVVMRPNHVRGNVVVTNIAQLVIYNVQPQDAGIYTCTARNVAGVLRADFPLSVVRGGQARATSESSLNGTAFPATECLKPPDSEDCGEEQTRWHFDAQANNCLTFTFGHCHHNLNHFETYEACMLACMSGPLATCSLPALQGPCKAYVPRWAYNSQTGLCQSFVYGGCEGNGNNFESREACEESCPFPRGNQHCRACKPRQKLVTSFCRSDFVILGRVSELTEEQDSGRALVTVDEVLKDEKMGLKFLGREPLEVTLLHVDWTCPCPNVTVGETPLIIMGEVDGGMAMLRPDSFVGASSTRRVRKLREVMYKKTCDVLKDFLGLQ
binding [9]: binds
binding [3]: binds
binding [10]: binds
binding [11]: binds
binding [12]: binds
binding [13]: binds
